Experiment [1] has as its target T1, Nkd1^myc (zebrafish Naked Cuticle homolog 1, C-terminal myc tag) (zebrafish) (UniProt Q2TJA6).
T1 sequence: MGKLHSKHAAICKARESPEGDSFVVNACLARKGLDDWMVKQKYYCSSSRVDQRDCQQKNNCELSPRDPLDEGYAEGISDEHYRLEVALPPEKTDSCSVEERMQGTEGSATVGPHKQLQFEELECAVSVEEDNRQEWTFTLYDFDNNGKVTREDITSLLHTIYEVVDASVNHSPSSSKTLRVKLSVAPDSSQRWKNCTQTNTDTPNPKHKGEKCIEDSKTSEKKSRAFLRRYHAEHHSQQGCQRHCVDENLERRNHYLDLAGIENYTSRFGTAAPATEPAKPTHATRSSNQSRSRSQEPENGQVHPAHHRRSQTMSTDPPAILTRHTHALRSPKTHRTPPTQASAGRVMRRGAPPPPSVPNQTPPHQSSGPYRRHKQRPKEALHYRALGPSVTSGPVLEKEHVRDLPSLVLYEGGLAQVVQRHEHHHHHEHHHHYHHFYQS
The experiment is described as follows: co-IP; competition: nkd1^myc co-injected with increasing doses of dsh^HA (0pg, 125pg and 250pg) into zebrafish embryos, harvested at dome stage, immunoprecipitated with anti-myc and western blotted with anti-β-catenin.

In experiment [2] the target is Dvl2 (endogenous zebrafish Disheveled 2) (zebrafish (endogenous in zebrafish embryos)). Description: co-IP; lysates of zebrafish embryos injected with nkd1^myc or nkd1^G2A-myc RNA, with or without wnt8 RNA, harvested at dome stage (4.3 hpf); modified Rubenfelds buffer with 0.3% NP-40; immunoprecipitation with anti-zDvl2, anti-myc or anti-β-catenin, western blot. In general terms: In western blotting, separated proteins are transferred to a membrane and probed.

Positions count from the first letter of the chain named. In names and notes the source's numbering stands. Results are given in words; binding and its absence hold for the method and conditions named. In cells and extracts the contact can be indirect. Binding can be weak; no strength is given. Sequences can lack the tags named with a protein.

With Dvl2^HA, in experiment [1], the binding entry is recorded as “binds”.

B1: Nkd1^myc (zebrafish Naked Cuticle homolog 1, C-terminal myc tag) (protein, UniProt Q2TJA6 1-440)
chain: T1 sequence
Turning to B1, in experiment [2], the binding result is given as “binds”.

B2: Nkd1^G2A-myc (zebrafish Nkd1, glycine 2 to alanine, C-terminal myc tag) (protein, UniProt Q2TJA6 1-440)
chain: T1 sequence with G2A
For the molecule B2, in experiment [2], the binding entry is “binds”.

(Values after article PMC3072412.)
